Source: the supplement of paper PMC10849652
The other results are listed elsewhere or left out.

Protein sequences, listed by entry. Tags and fused reporters are not part of them. Lines headed by an entry give the natural chain unless they say otherwise; changes in a name come on top.
UniProt Q6ZT07: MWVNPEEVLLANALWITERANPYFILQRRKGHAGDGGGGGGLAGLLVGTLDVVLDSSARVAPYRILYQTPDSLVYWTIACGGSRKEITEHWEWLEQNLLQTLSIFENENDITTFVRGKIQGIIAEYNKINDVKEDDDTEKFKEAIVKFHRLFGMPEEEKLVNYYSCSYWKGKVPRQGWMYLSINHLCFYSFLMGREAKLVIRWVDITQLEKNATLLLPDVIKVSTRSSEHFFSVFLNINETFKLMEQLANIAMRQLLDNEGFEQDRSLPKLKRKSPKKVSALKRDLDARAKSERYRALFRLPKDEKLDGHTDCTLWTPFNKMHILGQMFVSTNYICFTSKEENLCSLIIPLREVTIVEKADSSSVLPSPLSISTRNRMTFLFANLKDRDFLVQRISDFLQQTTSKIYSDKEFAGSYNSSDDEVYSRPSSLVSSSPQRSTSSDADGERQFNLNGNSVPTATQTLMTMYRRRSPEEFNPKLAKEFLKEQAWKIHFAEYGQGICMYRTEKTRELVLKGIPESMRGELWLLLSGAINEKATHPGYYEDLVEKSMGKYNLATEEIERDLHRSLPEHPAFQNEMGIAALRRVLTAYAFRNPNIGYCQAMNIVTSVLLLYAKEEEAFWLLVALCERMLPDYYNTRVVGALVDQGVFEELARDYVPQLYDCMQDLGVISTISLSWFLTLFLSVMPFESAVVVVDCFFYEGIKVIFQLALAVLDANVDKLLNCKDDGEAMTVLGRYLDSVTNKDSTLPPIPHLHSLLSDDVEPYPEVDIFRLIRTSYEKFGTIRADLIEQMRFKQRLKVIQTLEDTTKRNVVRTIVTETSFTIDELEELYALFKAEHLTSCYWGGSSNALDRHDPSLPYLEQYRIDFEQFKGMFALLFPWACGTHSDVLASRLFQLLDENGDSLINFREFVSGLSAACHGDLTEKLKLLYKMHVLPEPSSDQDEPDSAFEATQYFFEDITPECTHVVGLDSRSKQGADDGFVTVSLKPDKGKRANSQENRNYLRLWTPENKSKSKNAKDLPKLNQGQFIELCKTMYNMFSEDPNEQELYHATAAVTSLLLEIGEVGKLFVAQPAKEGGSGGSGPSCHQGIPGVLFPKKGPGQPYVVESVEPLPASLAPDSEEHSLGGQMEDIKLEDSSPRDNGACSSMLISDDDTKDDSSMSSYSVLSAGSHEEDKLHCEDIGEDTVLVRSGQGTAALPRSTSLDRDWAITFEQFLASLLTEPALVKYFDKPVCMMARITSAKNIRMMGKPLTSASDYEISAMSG
UniProt Q04726: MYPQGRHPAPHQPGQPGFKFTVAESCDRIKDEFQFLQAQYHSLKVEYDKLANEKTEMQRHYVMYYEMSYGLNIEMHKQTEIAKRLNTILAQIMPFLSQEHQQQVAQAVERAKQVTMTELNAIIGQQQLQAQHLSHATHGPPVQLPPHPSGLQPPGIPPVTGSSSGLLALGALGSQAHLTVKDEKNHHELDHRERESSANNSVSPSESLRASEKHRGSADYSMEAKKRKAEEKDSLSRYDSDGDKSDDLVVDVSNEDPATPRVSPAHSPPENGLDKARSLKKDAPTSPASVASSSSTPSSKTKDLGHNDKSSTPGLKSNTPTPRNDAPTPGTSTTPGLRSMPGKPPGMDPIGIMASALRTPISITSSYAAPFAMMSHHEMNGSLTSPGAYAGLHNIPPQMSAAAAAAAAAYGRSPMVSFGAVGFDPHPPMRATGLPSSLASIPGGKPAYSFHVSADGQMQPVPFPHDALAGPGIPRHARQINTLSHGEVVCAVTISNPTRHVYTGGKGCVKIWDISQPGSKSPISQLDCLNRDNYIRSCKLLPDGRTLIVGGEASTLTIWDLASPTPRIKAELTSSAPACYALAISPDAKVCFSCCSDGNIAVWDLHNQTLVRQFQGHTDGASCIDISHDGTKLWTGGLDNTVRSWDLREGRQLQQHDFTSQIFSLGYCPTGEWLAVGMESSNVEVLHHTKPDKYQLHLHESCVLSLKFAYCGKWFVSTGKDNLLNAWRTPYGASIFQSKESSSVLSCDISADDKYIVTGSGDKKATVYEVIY
UniProt Q9UBB9: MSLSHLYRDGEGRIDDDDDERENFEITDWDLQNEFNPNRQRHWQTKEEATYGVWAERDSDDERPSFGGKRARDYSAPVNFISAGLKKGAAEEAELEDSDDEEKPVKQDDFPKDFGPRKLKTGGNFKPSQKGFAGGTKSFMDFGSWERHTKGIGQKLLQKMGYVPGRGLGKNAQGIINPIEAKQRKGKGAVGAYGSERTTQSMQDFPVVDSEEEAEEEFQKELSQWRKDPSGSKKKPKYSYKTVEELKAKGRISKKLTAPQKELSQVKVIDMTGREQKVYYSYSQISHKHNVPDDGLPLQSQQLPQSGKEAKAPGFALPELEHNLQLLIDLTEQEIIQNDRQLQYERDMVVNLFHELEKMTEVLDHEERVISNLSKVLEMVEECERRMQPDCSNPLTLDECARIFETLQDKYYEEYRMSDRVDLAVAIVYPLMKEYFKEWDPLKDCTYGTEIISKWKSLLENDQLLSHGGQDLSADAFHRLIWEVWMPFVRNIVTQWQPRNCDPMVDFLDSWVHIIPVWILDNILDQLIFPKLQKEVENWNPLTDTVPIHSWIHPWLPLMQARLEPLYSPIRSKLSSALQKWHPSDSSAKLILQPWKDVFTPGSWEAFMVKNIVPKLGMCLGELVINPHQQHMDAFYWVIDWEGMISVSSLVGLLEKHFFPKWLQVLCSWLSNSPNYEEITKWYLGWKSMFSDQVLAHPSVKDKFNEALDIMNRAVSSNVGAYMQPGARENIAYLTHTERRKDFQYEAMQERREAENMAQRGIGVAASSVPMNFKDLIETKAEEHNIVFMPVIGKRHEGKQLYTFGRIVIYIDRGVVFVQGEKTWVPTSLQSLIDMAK
UniProt Q8N9U0: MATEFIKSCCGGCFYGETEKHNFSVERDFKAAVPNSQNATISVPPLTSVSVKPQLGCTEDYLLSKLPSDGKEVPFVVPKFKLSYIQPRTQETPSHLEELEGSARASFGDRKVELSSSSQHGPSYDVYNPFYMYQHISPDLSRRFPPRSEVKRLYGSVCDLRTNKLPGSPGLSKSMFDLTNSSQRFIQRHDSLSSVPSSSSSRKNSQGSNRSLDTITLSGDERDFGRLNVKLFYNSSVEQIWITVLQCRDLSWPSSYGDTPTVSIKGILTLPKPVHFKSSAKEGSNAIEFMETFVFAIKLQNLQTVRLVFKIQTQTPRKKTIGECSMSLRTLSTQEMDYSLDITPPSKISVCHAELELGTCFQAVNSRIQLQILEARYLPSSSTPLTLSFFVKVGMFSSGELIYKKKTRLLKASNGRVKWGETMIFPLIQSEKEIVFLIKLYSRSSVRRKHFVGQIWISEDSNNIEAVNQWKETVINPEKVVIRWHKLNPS
UniProt Q3MII6: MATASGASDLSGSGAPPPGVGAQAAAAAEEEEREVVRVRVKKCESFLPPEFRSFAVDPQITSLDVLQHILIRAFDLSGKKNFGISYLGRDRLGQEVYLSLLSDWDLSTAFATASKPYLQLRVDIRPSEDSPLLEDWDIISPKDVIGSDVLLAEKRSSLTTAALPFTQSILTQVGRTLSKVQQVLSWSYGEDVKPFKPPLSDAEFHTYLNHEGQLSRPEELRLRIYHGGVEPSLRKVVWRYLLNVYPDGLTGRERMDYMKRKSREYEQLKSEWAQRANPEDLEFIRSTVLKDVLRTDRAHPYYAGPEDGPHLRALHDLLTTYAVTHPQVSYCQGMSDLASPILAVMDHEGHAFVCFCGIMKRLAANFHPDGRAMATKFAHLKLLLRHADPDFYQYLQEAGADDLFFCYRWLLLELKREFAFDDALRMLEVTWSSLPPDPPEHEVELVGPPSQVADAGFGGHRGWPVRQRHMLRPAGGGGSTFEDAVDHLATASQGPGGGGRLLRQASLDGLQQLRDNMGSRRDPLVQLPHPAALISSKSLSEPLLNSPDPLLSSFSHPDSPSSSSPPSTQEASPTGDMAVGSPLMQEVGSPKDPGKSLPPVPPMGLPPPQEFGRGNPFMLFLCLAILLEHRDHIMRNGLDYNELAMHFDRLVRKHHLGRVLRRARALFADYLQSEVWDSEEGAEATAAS
UniProt Q9H7E2: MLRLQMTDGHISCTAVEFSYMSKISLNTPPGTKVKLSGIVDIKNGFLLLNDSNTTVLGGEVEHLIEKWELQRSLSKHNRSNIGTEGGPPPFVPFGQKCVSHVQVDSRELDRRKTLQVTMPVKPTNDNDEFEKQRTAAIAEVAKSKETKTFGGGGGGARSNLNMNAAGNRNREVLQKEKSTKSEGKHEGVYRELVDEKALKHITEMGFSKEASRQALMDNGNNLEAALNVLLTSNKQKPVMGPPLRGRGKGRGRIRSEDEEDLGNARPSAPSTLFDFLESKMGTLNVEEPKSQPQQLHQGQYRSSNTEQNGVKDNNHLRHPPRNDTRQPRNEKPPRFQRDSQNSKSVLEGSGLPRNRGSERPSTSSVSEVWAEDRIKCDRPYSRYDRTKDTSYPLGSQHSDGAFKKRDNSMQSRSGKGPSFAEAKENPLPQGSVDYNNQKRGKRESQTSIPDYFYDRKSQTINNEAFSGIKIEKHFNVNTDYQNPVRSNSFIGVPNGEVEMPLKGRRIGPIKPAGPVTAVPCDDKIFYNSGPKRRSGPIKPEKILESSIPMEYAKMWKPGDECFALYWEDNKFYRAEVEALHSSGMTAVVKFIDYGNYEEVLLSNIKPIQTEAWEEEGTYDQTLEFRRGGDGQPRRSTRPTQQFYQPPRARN

How the values were obtained:
Assay in all cases: log2 fold change, soluble protein after heating vs DMSO (PISA); higher = thermal stabilisation; K562 cells, 10 uM, 30 min; active = over 0.2 and 3.5 SD of the protein, either way, in both replicates (recomputed)
[1] = compound: CCn1c(C(=O)N(C2CC2)C2CC2)cc2c3c(ncn3C)c(Nc3cc(C)n(C)n3)nc21
Outline: (§1)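 K562 cells at 2×10^6 cells/mL were given 10 μM compound for 30 min. Aliquots then went through 3 min of heating across 48°C-58°C, were pooled, and were extracted in PBS with 0.5% NP-40 at 4°C, and the supernatant after 21,000xg for 90 min was quantified by TMTpro 16plex LC-MS/MS with channel sums equalised. Thermal stability relative to control samples, from duplicates, is given as log2 fold change.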

[2] = compound: CN(C)CC(=O)Nc1ccc2[nH]c(=O)c3ccccc3c2c1
Outline: as §1

[3] = compound: CN(CCOC1=CC=C(C=C1)C[C@H]2C(=O)NC(=O)S2)C3=CC=CC=N3 (racemic) [rosiglitazone]
Outline: as §1

[4] = compound: CN1C2=C(C3=C1C(=O)N(N=C3)CC4=CC(=CC=C4)N)SC(=C2)S(=O)C
Outline: as §1

[5] = compound: CN1CCN(CCOc2cc(OC3CCOCC3)c3c(Nc4c(Cl)ccc5c4OCO5)ncnc3c2)CC1 [saracatinib]
Outline: as §1

[6] = compound: CNC(=O)C1=CC=CC=C1NC2=NC(=NC=C2Cl)NC3=C(C=C(C=C3)N4CCOCC4)OC
Outline: as §1

[7] = compound: CNC(=O)c1ccc(Nc2ncc(C(F)(F)F)c(NCc3nccnc3N(C)S(C)(=O)=O)n2)cc1 [defactinib]
Outline: as §1

[8] = compound: CNc1nc(-c2ccc3c(N)n[nH]c3c2)cc(N2C[C@@H](C(=O)NC3CCCCC3)CC[C@H]2C)n1
Outline: as §1

[9] = compound: COC(=O)[C@H](CCSC)NC(=O)C1=C(C=C(C=C1)NC[C@H](CS)N)C2=CC=CC=C2
Outline: as §1

[10] = compound: CC[C@@H]1C(=O)N(C)c2cnc(Nc3ccc(C(=O)NC4CCN(C)CC4)cc3OC)nc2N1C1CCCC1
Outline: as §1

[11] = compound: CN1CC[C@H](c2c(O)cc(O)c3c(=O)cc(-c4ccccc4Cl)oc23)[C@H](O)C1 [alvocidib]
Outline: as §1

[12] = compound: CNCc1ccc(-c2[nH]c3cc(F)cc4c3c2CCNC4=O)cc1 [rucaparib]
Outline: as §1

[13] = compound: COC(=O)N[C@@H](C)CNc1nccc(-c2cn(C(C)C)nc2-c2cc(Cl)cc(NS(C)(=O)=O)c2F)n1 [encorafenib]
Outline: as §1

[14] = compound: CC[C@@H]1C(=O)N(C)c2cnc(Nc3ccc(C(=O)N[C@H]4CC[C@H](N5CCN(CC6CC6)CC5)CC4)cc3OC)nc2N1C(C)C [volasertib]
Outline: as §1

[15] = compound: CN1CCc2c(c3ccccc3n2Cc2ccc(C(=O)NO)cc2)C1 [Tubastatin A]
Outline: as §1

[16] = compound: CC[C@H](C)N1C=C(C2=C(C=C(C=C21)C3=CN=C(C=C3)N4CCNCC4)C(=O)NCC5=C(C=C(NC5=O)C)C)C
Outline: as §1

[17] = compound: CC[C@H](C)[C@@H](C(=O)N[C@@H]([C@@H](C)O)C(=O)N[C@@H](CC(C)C)C(=O)[C@]1(CO1)C)NC(=O)[C@H]([C@@H](C)CC)N(C)C(=O)C [epoxomicin]
Outline: as §1

Measured: log2 fold change

TBC1D9 (UniProt Q6ZT07)
inactive: [1] 0.044 | [2] -0.205 | [3] 0.141 | [4] -0.103 | [5] -0.041 | [6] -0.037 | [7] -0.412 | [8] -0.011 | [9] -0.049

TLE3 (UniProt Q04726)
inactive: [10] 0.138 | [3] 0.043 | [11] 0.057 | [12] 0.128 | [13] -0.182

TFIP11 (UniProt Q9UBB9)
inactive: [10] 0.029 | [11] -0.107 | [12] 0.045 | [13] -0.214

TGM2 (UniProt A2A299)
inactive: [14] -0.292 | [1] -0.047 | [2] -0.085 | [4] -0.052 | [5] -0.009 | [11] -0.009 | [15] 0 | [6] -0.102 | [7] 0.085 | [8] -0.19 | [9] -0.075

TC2N (UniProt Q8N9U0)
inactive: [16] 0.029 | [2] -0.194 | [4] 0.073 | [5] -0.215 | [15] 0.308 | [7] -0.341 | [8] -0.064 | [9] -0.096

TBC1D25 (UniProt Q3MII6)
inactive: [1] 0.12 | [2] 0.068 | [3] -0.073 | [11] -0.098 | [6] 0.095 | [7] -0.029 | [9] -0.094

TDRD3 isoform 3 (UniProt Q9H7E2)
inactive: [14] 0.058 | [17] -0.074 | [2] -0.012 | [3] -0.007 | [7] 0.443 | [9] -0.044
